In PubChem BioAssay AID2685 (National Center for Advancing Translational Sciences (NCATS), 2010) one finds cell number change and AC50 data, which are given here for 60 molecules.

In general, AC50 refers to the midpoint of the concentration-response curve, whichever way the signal moves. Low values mean greater potency, high ones weaker potency.

Several values for one entry are separate records, joined by “and”; a condition that tells them apart may be missing. Equal entries are not always repeated. This is one part of the list. These are further read-outs of the screen, such as a control signal, another cell line or another target. No call is given for them. Most of these compounds were active or inconclusive in the main read-out, so they are no random draw. Potencies come from curve fits of mixed quality, noted in brackets.

The experiment is described as follows: qHTS Assay for Lipid Storage Modulators in Drosophila S3 Cells.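 For cell number change: cells counted by Cell Tracker Red CMTPX staining in the red channel.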 The note with it: BODIPY lipid droplet fluorescence, 18-24 h; for cell number change: measured here: cell count max response, cells fed with added oleic acid. The method, boiled down: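 Laser-scanning cytometry quantifies lipid droplet accumulation (500–530 nm total intensity; droplet/cell object ratio) in oleic acid-fed (400 uM added) Drosophila S3 cells treated with a concentration series. 20 uM Triacsin C defined 100% inhibition.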
In general terms: In qHTS, concentration-response curves come from the screen itself.

Setting [1] is: measured here: cell number channel AC50, cells fed with added oleic acid.
[2] abbreviates: measured here: lipid fluorescence (Fed channel) AC50, cells fed with added oleic acid.

Take `CN(C(=O)CSc1nc2ccccc2s1)c1c(N)n(Cc2ccccc2)c(=O)[nH]c1=O`: the cell number change is -31.5%. Further, under setting [1], the concentration at half-maximal activity (AC50) was 6.51 µM [falling, full curve, poor fit].

With `COc1ccc(CNC(=O)CSc2nc(SC)ns2)cc1`, the cell number change is -8.29%. Further, the AC50 under setting [2] is 1.46 µM [rising, single point]. In the case of `COC(=O)c1[nH]c2c(c1C)C(=O)CCC2`, the cell number change is -9.2%. On to `Nc1nc2ccccc2n1/N=C/c1ccc(Br)cc1`, for which the cell number change is -140%. Also, under setting [1], the AC50 is 29.1 µM [falling, single point]. Moreover, under setting [2], the half-maximal activity concentration (AC50) was 29.1 µM [falling, single point]. `CC(Oc1ccc(Cl)cc1)C(=O)NCC1CCCO1` (stereo not given): the cell number change is -4.62%.

As to `CCn1c(C)nc2cc(S(=O)(=O)C(F)(F)F)ccc21`, the cell number change was -1.64%. On to `CC1(C)CC(N2CCCC2)=CC(=[N+]2CCCCCC2)C1`, for which the cell number change is -48.9%. Besides, the AC50 under setting [1] was 0.58 µM [falling, full curve, poor fit]. Further, the AC50 under setting [2] is 0.0517 µM [falling, full curve, poor fit]. In the case of `Cc1ccc(N=Nc2c(C)[nH]n(-c3ccccc3)c2=O)cc1Br`, the cell number change is -2.7%. Under setting [2], the AC50 was 1.84 µM [falling, partial curve].

As to `COc1cccc(CNC(=O)c2cccnc2Sc2ccccc2)c1`, the cell number change turned out to be 20%.

For `C=CCn1c(SCc2c(C)noc2C)nc2sc3c(c2c1=O)CCCC3`, the cell number change is -32.9%. Further, the concentration at half-maximal activity (AC50) under setting [1] was 14.6 µM [falling, partial curve, poor fit]. Under setting [2], the AC50 was 18.4 µM [falling, partial curve]. Turning to `CCCC(=O)Oc1ccc(-c2nccc(C(OC)OC)n2)cc1`, the cell number change was 23.2%. Moreover, the AC50 under setting [2] was 4.11 µM [rising, single point]. For the molecule `CC(=O)c1ccc(NC(=O)C2CCCO2)cc1` (stereo not given), the cell number change was 14.4%. Regarding `COc1ccc(NC(=O)c2cccs2)cc1OC`, the cell number change was found to be 2.37%. For the same molecule, the AC50 under setting [2] is 7.31 µM [rising, partial curve]. For `COc1cc2c(OC)cccc2cc1C(=O)O`, the cell number change is -14.3%. Further, the half-maximal activity concentration (AC50) under setting [2] was 5.17 µM [falling, full curve, poor fit]. Turning to `O=C(O)CCC(=O)Nc1ccc2c(c1)oc1ccccc12`, the cell number change was -41%. Under setting [1], the AC50 was 9.2 µM [falling, partial curve, poor fit]. Under setting [2], the half-maximal activity concentration (AC50) is 29.1 µM [falling, single point].

Regarding `COc1ccc(-c2cc(C(F)(F)F)n3nc(C(=O)N4CCN(C(=O)c5ccco5)CC4)cc3n2)cc1`, the cell number change was -19.8%. Moreover, under setting [2], the AC50 was 0.731 µM [rising, full curve].

Take `CCOc1ccccc1NC(=O)N1CCCC1C(=O)Nc1nnc(CC)s1` (stereo not given): the cell number change was -12.2%. Moreover, the half-maximal activity concentration (AC50) under setting [2] was 2.06 µM [falling, full curve, poor fit]. Regarding `COCc1ccccc1C1=CC(=O)C[C@H](c2ccc(OC)cc2)C1`, the cell number change is -20.4%. The AC50 under setting [1] was 1.46 µM [falling, partial curve, poor fit]. Moreover, the AC50 under setting [2] was 2.06 µM [falling, partial curve]. On to `CCOc1ccc(S(=O)(=O)N2CCOCC2)cc1NC(=O)CN1C(=O)NC(C)(c2ccccc2)C1=O` (stereo not given), for which the cell number change is -18.8%. Further, the half-maximal activity concentration (AC50) under setting [2] was 29.1 µM [rising, single point]. On to `COc1ccc2c(c1)c1ncn(CCN3CCNCC3)c(=O)c1n2C`, for which the cell number change was 55.6%. Further, the AC50 under setting [1] was 20.6 µM [rising, partial curve]. Turning to `COc1ccc(NS(=O)(=O)c2cc(C(=O)O)ccc2C)cc1`, the cell number change is -46.2%. In addition, under setting [1], the concentration at half-maximal activity (AC50) is 10.3 µM [falling, partial curve]. In addition, the AC50 under setting [2] was 5.17 µM [falling, partial curve].

For `Cc1cccc(Nc2nnc(SCC(=O)NC(=O)Nc3ccc4c(c3)OCCO4)s2)c1`, the cell number change was 6.48%. Under setting [1], the concentration at half-maximal activity (AC50) was 0.206 µM [rising, full curve, poor fit]. Further, the AC50 under setting [2] was 29.1 µM [falling, single point].

`CCOc1ccc(NC(=O)NCCCCc2ccccc2)cc1`: the cell number change is -26%. Besides, the AC50 under setting [2] was 5.62 µM [rising, full curve, poor fit]. As to `Cc1cc(Br)ccc1NC(=O)CN(C)C(=O)C1CSC2(C)CCC(=O)N12` (stereo not given), the cell number change is -2.55%. Also, the AC50 under setting [2] was 0.184 µM [rising, full curve, poor fit]. In the case of `CCc1c(C(=O)N/N=C/c2cccs2)nnn1-c1nonc1N`, the cell number change is -31.7%. Under setting [1], the concentration at half-maximal activity (AC50) was 5.17 µM [falling, single point]. Under setting [2], the half-maximal activity concentration (AC50) is 29.1 µM [falling, single point].

With `O=C(Nc1cc(C(F)(F)F)ccc1N1CCOCC1)c1ccc(Cl)nc1`, the cell number change was -4.18%. The AC50 under setting [2] is 7.31 µM [rising, partial curve]. Take `C/C(=N\NC(N)=O)c1cccc(Cl)c1`: the cell number change is -45.4%. In addition, the AC50 under setting [1] was 29.1 µM [falling, single point]. Moreover, the AC50 under setting [2] is 0.00461 µM [falling, full curve, poor fit]. Turning to `O=C(NC(=S)Nc1ccc2c(c1)OCCO2)c1cccc(Br)c1`, the cell number change was 21.1%. On the same count and under the same terms, as for `CCCCn1nnc(NC(=O)Cc2ccc(Cl)cc2)n1`, the figure is -13.3%; as for `O=[N+]([O-])c1cc(Br)c(O)c(C=Nc2ccc(N3CCOCC3)cc2)c1`, -9.38%; as for `O=C1CC(N2C(=O)/C(=C/C=C/c3ccccc3)SC2=S)C(=O)N1c1ccccc1` (stereo not given), 0.5%. Regarding `Cc1cc2occ(CC(=O)NC3(C)CCS(=O)(=O)C3)c2cc1C` (stereo not given), the cell number change amounted to 10.4%. In addition, the half-maximal activity concentration (AC50) under setting [2] was 11.2 µM [rising, partial curve]. For `COc1ccc(S(=O)(=O)N2CCCC2C(=O)NCc2ccccc2Cl)cc1` (stereo not given), the cell number change was found to be 22.1%. The half-maximal activity concentration (AC50) under setting [2] was 0.731 µM [rising, full curve, poor fit].

Turning to `Cn1c(=O)c2c(nc(NCCc3ccccc3)n2Cc2ccccc2)n(C)c1=O`, the cell number change is -30.5%. Under setting [1], the AC50 was 6.51 µM [falling, full curve, poor fit]. Besides, the AC50 under setting [2] is 5.17 µM [falling, full curve]. Regarding `CCC(Oc1ccccc1)C(=O)N(CC)CC(=O)NCc1ccc(F)cc1` (stereo not given), the cell number change is -75%. Also, the AC50 under setting [1] is 1.84 µM [falling, partial curve]. Consider `O=S(=O)(c1cccc(C(F)(F)F)c1)N(CCCN1CCOCC1)Cc1cccs1`, for which the cell number change is 47.1% and 32.6%. Also, under setting [1], the half-maximal activity concentration (AC50) was 29.1 µM [rising, single point] and 16.4 µM [rising, single point]. Under setting [2], the AC50 is 29.1 µM [rising, single point] and 29.1 µM [falling, single point]. In the case of `Cc1nc(NCCc2cnc[nH]2)c2oc3ccccc3c2n1`, the cell number change was -8.88%. The concentration at half-maximal activity (AC50) under setting [2] is 2.06 µM [rising, full curve, poor fit]. With `Cc1ccc(C(=O)OCC(=O)N2CC(C)OC(C)C2)cc1` (stereo not given), the cell number change came out at 12.6%. For the same molecule, the half-maximal activity concentration (AC50) under setting [2] is 9.2 µM [rising, partial curve]. As to `CC1(C(=O)OCC(=O)Nc2ccccc2)CC1(Cl)Cl` (stereo not given), the cell number change is -13.8%. Further, the half-maximal activity concentration (AC50) under setting [2] is 29.1 µM [falling, single point]. As to `CCCC(C(=O)Nc1cccc(S(=O)(=O)N2CCCC2)c1)c1ccccc1` (stereo not given), the cell number change was determined as 4.15%. As for `N#Cc1c(Cl)nc(-c2ccncc2)nc1-c1ccccc1`, the cell number change turned out to be 16.4%. In addition, under setting [2], the AC50 is 6.51 µM [falling, single point]. Turning to `CC(OC(=O)c1cccnc1SCc1cc(=O)n2ccccc2n1)c1ccccn1` (stereo not given), the cell number change turned out to be 8.77%.

`COc1cc(OC)c(S(=O)(=O)Nc2ccccc2N2CCCCC2)cc1NC(C)=O`: the cell number change is -0.367%. In addition, the concentration at half-maximal activity (AC50) under setting [2] was 0.651 µM [falling, full curve, poor fit]. As to `O=C(NCc1ccccn1)[C@H]1C[C@@H]1[C@H](NP(=O)(c1ccccc1)c1ccccc1)c1ccccc1`, the cell number change was 5.28%. Further, the AC50 under setting [2] was 16.4 µM [rising, partial curve, poor fit]. Turning to `CCn1c(SCC(=O)N(C)C)nc2cc(S(=O)(=O)N3CCOCC3)ccc21`, the cell number change is 3%. With `Cc1ccc(S(=O)(=O)N2CCOCC2)cc1C(=O)OCc1nnc(-c2ccccc2)o1`, the cell number change was -2.99%. Besides, the AC50 under setting [2] was 23.1 µM [rising, partial curve, poor fit].

Take `Cc1cccc(NC(=O)CN2CCN(C(=O)c3cccc(-n4cnnn4)c3)CC2)c1C`: the cell number change came to 2.22%. Also, the AC50 under setting [2] is 4.61 µM [rising, full curve, poor fit]. As to `CCOC(=O)c1[nH]c2ccc(OC)cc2c1NC(=O)CCN1CCc2ccccc2C1`, the cell number change is -8.96%. For the same molecule, the AC50 under setting [2] was 0.259 µM [rising, full curve]. In the case of `Cc1nn(Cc2ccccc2)c(Cl)c1C(=O)NCc1ccc(C)n1C`, the cell number change worked out at 18.6%. Moreover, under setting [2], the AC50 is 6.51 µM [rising, full curve, poor fit]. Regarding `N#Cc1c[nH]n2c(=O)cc(Cc3ccccc3)nc12`, the cell number change was -18.6%. The AC50 under setting [2] was 29.1 µM [falling, single point].

Consider `COc1ccccc1NC(=O)Cc1nnc(SCC(=O)c2ccc(F)cc2)n1C`, for which the cell number change was 14.3%. In the case of `CC1CC(=O)c2cnc(N3CCOCC3)nc2C1` (stereo not given), the cell number change is 49.2%. Under setting [1], the concentration at half-maximal activity (AC50) is 14.6 µM [rising, partial curve, poor fit].

Regarding `Cn1cnnc1Sc1cc(N2CCN(S(=O)(=O)c3ccccc3)CC2)ccc1[N+](=O)[O-]`, the AC50 under setting [2] was 25.9 µM [rising, partial curve]. Turning to `O=C(c1ccc(-c2nc3ccccc3s2)o1)N1CCN(c2ccccc2O)CC1`, the cell number change is -37.2%. Further, the half-maximal activity concentration (AC50) under setting [1] is 32.6 µM [falling, single point]. In addition, the concentration at half-maximal activity (AC50) under setting [2] was 11.6 µM [falling, partial curve]. Consider `CC1(C)CC(=O)c2cc(C(=O)N3CCCC(C)(C)C3)c(=O)n(-c3ccccc3)c2C1`, for which the cell number change was -21.2%. For the same molecule, under setting [2], the AC50 is 3.26 µM [falling, full curve, poor fit]. With `CCN(CC(=O)NCc1ccc(Cl)cc1)C(=O)CCC(=O)c1ccc(F)cc1`, the cell number change turned out to be 21.6%. For the same molecule, the AC50 under setting [2] was 32.6 µM [rising, single point]. For `CCOC(=O)CNC(=O)c1sc(NC(=O)c2cccc(F)c2)nc1C`, the cell number change is 82.8%. Further, under setting [1], the AC50 was 29.1 µM [rising, single point]. For `O=C(Nc1ccccc1Cl)c1cc(S(=O)(=O)N2CCCCC2)ccc1N1CCOCC1`, the cell number change is -14.7%. For `CC1(c2nnc(-c3ccccc3)o2)CC(c2cccc(Cl)c2)=NO1` (stereo not given), the half-maximal activity concentration (AC50) under setting [2] is 4.11 µM [rising, single point]. On to `Clc1ccc(-n2ncc3c(NCc4cccnc4)ncnc32)cc1Cl`, for which the concentration at half-maximal activity (AC50) under setting [2] is 3.26 µM [falling, full curve].
